# Taken from: PubChem BioAssay AID652243 (Drosophila RNAi Screening Center, 2013)
# Screen: 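Knock-downs that decrease or increase androgen receptor reporter signal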 (primary screen)
# Cell system: Drosophila S2R+ cells
# Reagents: long dsRNA against Drosophila genes
# Time to read-out: 72 h (48 h, then 24 h hormone)
# Challenge: synthetic androgen R1881 at 10 nM for 24 h
# Measurement: 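Firefly light from an androgen-responsive reporter and Renilla control light per well, raw and unnormalised, for each of two replicates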
# Direction: firefly reporter light: higher = more light from androgen-responsive reporter; Renilla control light: higher = more constitutive control signal (cell number, transfection)
# Hit rule: 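Hit when the log firefly-to-Renilla ratio dropped or increased by a fixed fold versus the mean of GFP or LacZ controls across duplicate plates; lowering cut given as 1.5 and as 3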
# Meaning of the calls: active = hit: reporter lowered or raised; inactive = no hit
# In all, the deposit lists about 24,000 reagents; this is an unselected part of those with a known target gene and a result. Of all reagents, 246 (1%) were called active. 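Plates not normalised; calls are printed but the firefly/Renilla ratio behind them is not deposited; fold cut for lowering reported inconsistently.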 Raw values vary from plate to plate and are shown uncorrected. The record does not give: the amount of reagent.
gene,DRSC id,"firefly reporter light, replicate 1","firefly reporter light, replicate 2","Renilla control light, replicate 1","Renilla control light, replicate 2",call
unc-13-4A (GeneID 38801),DRSC10201,3.83e5,2.48e5,3.68e6,3.55e6,inactive
unc-13-4A (GeneID 38801),DRSC10202,2.25e5,2.01e5,2.14e6,1.95e6,inactive
unc-13-4A (GeneID 38801),DRSC11013,1.35e5,1.59e5,1.57e6,1.98e6,inactive
insc (GeneID 37355),DRSC04695,2.06e5,2.52e5,1.93e6,2.09e6,inactive
crn (GeneID 31208),DRSC18184,3.00e5,2.09e5,3.72e6,3.09e6,inactive
crn (GeneID 31208),DRSC18185,2.13e5,1.88e5,3.12e6,2.54e6,inactive
crn (GeneID 31208),DRSC18755,1.21e5,76961,8.88e5,5.48e5,inactive
gry (GeneID 38391),DRSC08028,1.38e5,1.87e5,3.70e5,5.58e5,inactive
gry (GeneID 38391),DRSC08518,8.62e5,1.32e6,1.95e6,2.07e6,inactive
Rsph1 (GeneID 34712),DRSC02864,1.41e5,1.66e5,1.49e6,1.46e6,inactive
Rsph1 (GeneID 34712),DRSC26510,2.98e5,2.48e5,4.12e5,3.90e5,inactive
Ptp61F (GeneID 38160),DRSC08683,83884,67638,1.07e6,7.16e5,inactive
Ptp61F (GeneID 38160),DRSC28719,6.32e5,7.33e5,1.35e6,1.32e6,inactive
Ptp61F (GeneID 38160),DRSC37002,,,,,inactive
CG5440 (GeneID 33318),DRSC00685,89416,1.12e5,9.58e5,6.86e5,inactive
CG5440 (GeneID 33318),DRSC29429,4.82e5,6.56e5,9.03e5,9.03e5,inactive
CG12464 (GeneID 36516),DRSC06156,91688,91568,1.61e6,1.61e6,inactive
Cyp4ac2 (GeneID 33755),DRSC03303,2.02e5,2.34e5,1.56e6,1.50e6,inactive
Sgs5 (GeneID 42114),DRSC16862,2.18e5,2.21e5,2.11e6,2.32e6,inactive
CG1233 (GeneID 38063),DRSC08269,1.17e6,1.00e6,1.20e6,1.04e6,inactive
CG1233 (GeneID 38063),DRSC26110,3.40e5,3.64e5,7.28e5,6.91e5,inactive
CG34141 (GeneID 4379870),DRSC38603,8.46e5,6.23e5,2.37e6,2.53e6,inactive
sif (GeneID 43892),DRSC08759,1.32e5,1.42e5,2.45e5,3.00e5,inactive
sif (GeneID 43892),DRSC11395,3.24e5,2.23e5,3.64e6,3.56e6,inactive
sif (GeneID 43892),DRSC22065,7.98e5,6.25e5,2.43e6,2.11e6,inactive
sif (GeneID 43892),DRSC22828,4.01e5,1.20e6,7.26e5,9.85e5,inactive
sif (GeneID 43892),DRSC26730,5.46e5,5.71e5,5.31e5,5.40e5,inactive
Lgr1 (GeneID 42133),DRSC16675,1.14e5,1.12e5,1.40e6,1.19e6,inactive
Jon99Cii (GeneID 43544),DRSC16858,1.67e5,1.64e5,2.88e6,3.15e6,inactive
Jon99Cii (GeneID 43544),DRSC22574,4.78e5,4.37e5,7.18e5,6.86e5,inactive
CG14664 (GeneID 12798232),DRSC12250,73271,52031,2.03e6,1.69e6,inactive
Pdrg1 (GeneID 36034),DRSC28485,5.59e5,6.41e5,6.62e5,1.20e6,inactive
CG17930 (GeneID 41979),DRSC15292,38669,29276,2.02e5,2.49e5,inactive
CG17930 (GeneID 41979),DRSC28230,4.01e5,6.30e5,7.57e5,1.60e6,inactive
AdipoR (GeneID 42656),DRSC15767,71660,1.04e5,8.50e5,8.68e5,inactive
CG7276 (GeneID 39668),DRSC10797,2.66e5,1.93e5,2.81e6,2.37e6,inactive
emb (GeneID 34167),DRSC03528,5.52e5,7.15e5,1.74e6,2.17e6,inactive
cGlr1 (GeneID 36744),DRSC06270,83734,1.04e5,1.31e6,1.31e6,inactive
Snx16 (GeneID 37015),DRSC06984,65199,87832,9.37e5,9.37e5,inactive
CG12374 (GeneID 36410),DRSC06143,2.88e5,2.27e5,1.96e6,1.83e6,inactive

Part of the list above, limited to “firefly reporter light, replicate 1”.
Rsph1 (GeneID 34712) [DRSC02864] = 1.41e5
Rsph1 (GeneID 34712) [DRSC26510] = 2.98e5
Ptp61F (GeneID 38160) [DRSC08683] = 83884
Ptp61F (GeneID 38160) [DRSC28719] = 6.32e5
